Measured data: PubChem BioAssay AID1259327 (Drosophila RNAi Screening Center, 2017)
The deposit covers about 3,100 reagents; below is a part drawn at random. 378 of them (12%) count as active. 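Hits include both directions; z-score sign shows ATP rise or fall; raw luminescence values are not plate-normalised.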 Entries without a mark were called inactive. A plus sign joins genes that one reagent is predicted to hit. Not stated in the record: the amount of reagent.

- Assay: 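Knock-downs altering cellular ATP with no metal added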
- Cells: Drosophila S2R+ cells
- Reagents: long dsRNA against Drosophila genes
- Time to read-out: 5 days (water added on day 4, read one day later)
- Challenge: water added as vehicle, no metal, one day before read-out
- Measurement: 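Luciferase ATP signal per well, normalised to plate mean, duplicate average converted to z-score across plates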
- Direction: ATP z-score: higher = more total ATP than typical wells; ATP luminescence: higher = more total ATP
- Hit rule: 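a hit is any knock-down whose absolute ATP z-score is greater than 1.5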
- Meaning of the calls: active = hit: ATP up or down; inactive = no clear ATP change

| gene knocked down | DRSC id | ATP z-score, duplicate mean | ATP luminescence, replicate 1 (RLU) | ATP luminescence, replicate 2 (RLU) |
| --- | --- | --- | --- | --- |
| tty | DRSC20588 | 0.194 | 7.25e5 | 7.26e5 |
| tty | DRSC26868 | 2.58 (active) | 1.01e6 | 1.14e6 |
| CG3078 | DRSC39707 | 2.57 (active) | 5.90e5 | 6.92e5 |
| CG3078 | DRSC39834 | -0.665 | 3.64e5 | 5.06e5 |
| CG9467 | DRSC16498 | 0.202 | 7.09e5 | 7.44e5 |
| Ir41a | DRSC04730 | -0.147 | 7.41e5 | 7.11e5 |
| Ir41a | DRSC04875 | -0.341 | 7.48e5 | 6.33e5 |
| CG14857 | DRSC14981 | 0.382 | 3.26e5 | 7.78e5 |
| CG14857 | DRSC39636 | -1.28 | 3.84e5 | 3.72e5 |
| PIG-N | DRSC06837 | 2.45 (active) | 7.84e5 | 8.99e5 |
| CG12914 | DRSC06229 | -1.68 (active) | 4.17e5 | 5.18e5 |
| Ptpmeg2 | DRSC18277 | -0.435 | 6.05e5 | 6.00e5 |
| Ptpmeg2 | DRSC23303 | 0.256 | 5.07e5 | 6.97e5 |
| Ptpmeg2 | DRSC26646 | -0.676 | 8.83e5 | 1.08e6 |
| AstC-R1 | DRSC10799 | 0.282 | 9.49e5 | 9.17e5 |
| AstC-R1 | DRSC29648 | 0.739 | 9.69e5 | 8.59e5 |
| TRAM | DRSC18178 | 0.579 | 8.66e5 | 7.41e5 |
| TRAM | DRSC18651 | 1.16 | 7.78e5 | 7.16e5 |
| Octbeta2R | DRSC15350 | -0.0584 | 7.24e5 | 7.49e5 |
| Octbeta2R | DRSC16165 | 0.113 | 2.83e5 | 8.30e5 |
| Octbeta2R | DRSC25380 | -0.423 | 9.09e5 | 6.47e5 |
| CG13995 | DRSC22767 | 0.24 | 5.84e5 | 6.16e5 |
| CG13995 | DRSC28023 | -0.986 | 9.59e5 | 9.29e5 |
| wdp | DRSC28581 | 0.871 | 9.70e5 | 8.89e5 |
| prom | DRSC22088 | 1.49 | 7.08e5 | 7.04e5 |
| prom | DRSC26828 | 0.924 | 9.16e5 | 9.81e5 |
| prom | DRSC27557 | 0.114 | 8.35e5 | 1.24e6 |
| prom | DRSC39649 | -1.49 | 3.83e5 | 3.45e5 |
| Gr5a | DRSC18085 | -0.0984 | 6.39e5 | 6.56e5 |
| Ac13E | DRSC19325 | -0.899 | 6.25e5 | 8.98e5 |
| Ac13E | DRSC27333 | -0.243 | 1.05e6 | 1.09e6 |
| CG11147 | DRSC02129 | -0.629 | 7.00e5 | 6.19e5 |
| CG33233 | DRSC08239 | -0.109 | 5.37e5 | 6.82e5 |
| CG33233 | DRSC39585 | -0.61 | 3.84e5 | 4.65e5 |
| Pex23 | DRSC10323 | -0.355 | 6.99e5 | 6.87e5 |
| Pex23 | DRSC10645 | -1.06 | 7.89e5 | 7.28e5 |
| Pex23 | DRSC28370 | -0.106 | 9.28e5 | 7.03e5 |
| htl | DRSC16968 | 0.0639 | 7.37e5 | 6.88e5 |
| htl | DRSC36668 | -1.82 (active) | 4.14e5 | 4.37e5 |
| CngB | DRSC04297 | 0.53 | 7.57e5 | 8.19e5 |
| Fas3 | DRSC03326 | 2.82 (active) | 1.07e6 | 9.79e5 |
| Fas3 | DRSC22776 | 3.13 (active) | 8.89e5 | 7.99e5 |
| Fas3 | DRSC28665 | 0.589 | 9.55e5 | 8.37e5 |
| CG3792 | DRSC02725 | 0.415 | 7.58e5 | 7.82e5 |
| Loxl2 | DRSC04469 | 0.0814 | 7.65e5 | 7.13e5 |
| CG10481 | DRSC02063 | -0.207 | 7.15e5 | 6.93e5 |
| CG10481 | DRSC39539 | -1.12 | 4.14e5 | 3.45e5 |
| Tsp42Eg | DRSC06112 | 1.37 | 7.25e5 | 1.03e6 |
| mthl10 | DRSC08504 | 0.755 | 6.77e5 | 6.99e5 |
| mthl10 | DRSC08505 | 1.26 | 7.49e5 | 1.02e6 |
| mthl10 | DRSC39158 | -0.018 | 4.93e5 | 6.65e5 |
| Cpes | DRSC27503 | 0.99 | 9.92e5 | 1.11e6 |
| cry | DRSC16928 | -0.456 | 2.95e5 | 6.71e5 |
| cry | DRSC39669 | -1.49 | 3.78e5 | 3.50e5 |
| CG30471 | DRSC07096 | 0.0695 | 7.00e5 | 7.78e5 |
| CG1090 | DRSC21604 | -1.18 | 5.14e5 | 4.45e5 |
| Stim | DRSC20158 | -0.0412 | 6.97e5 | 7.05e5 |
| Stim | DRSC39682 | -0.955 | 3.90e5 | 4.11e5 |
| Cad96Ca | DRSC14220 | 0.0201 | 3.19e5 | 7.15e5 |
| Cad96Ca | DRSC16693 | -0.256 | 7.10e5 | 7.19e5 |
| Cad96Ca | DRSC36738 | -0.6 | 5.07e5 | 5.51e5 |
| SLC22A | DRSC11826 | -1.17 | 8.17e5 | 6.71e5 |
| SLC22A | DRSC11827 | 0.888 | 1.08e6 | 9.50e5 |
| Cals | DRSC17196 | -0.598 | 6.30e5 | 6.58e5 |
| Cals | DRSC21661 | -1.33 | 4.81e5 | 6.44e5 |
| LpR1 | DRSC15665 | -2.01 (active) | 5.25e5 | 4.72e5 |
| LpR1 | DRSC15669 | -1.32 | 2.33e5 | 6.36e5 |
| LpR1 | DRSC27848 | 1.67 (active) | 8.07e5 | 8.92e5 |
| TyrR | DRSC16242 | 0.153 | 3.29e5 | 7.21e5 |
| TyrR | DRSC39601 | 1.74 (active) | 6.39e5 | 5.26e5 |
| ogre | DRSC18809 | -0.298 | 6.89e5 | 6.61e5 |
| ogre | DRSC24730 | 0.0726 | 8.18e5 | 9.01e5 |
| ppk19 | DRSC15321 | -1.52 (active) | 5.21e5 | 9.92e5 |
| ppk19 | DRSC39774 | -1.08 | 4.10e5 | 3.97e5 |
| Vha16-3 | DRSC10872 | -0.0279 | 9.30e5 | 8.56e5 |
| Vha16-3 | DRSC25513 | 0.105 | 8.43e5 | 8.84e5 |
| Ctr1A | DRSC18336 | -2.44 (active) | 3.86e5 | 4.89e5 |
| List | DRSC06520 | 1.19 | 7.80e5 | 6.74e5 |
| List | DRSC39801 | -1.61 (active) | 3.99e5 | 3.31e5 |
| Or43a | DRSC07485 | 1.22 | 7.84e5 | 6.76e5 |
| Ir52a | DRSC06262 | 1.11 | 7.18e5 | 7.22e5 |
| ACXC | DRSC00846 | -0.958 | 6.49e5 | 6.00e5 |
| spin | DRSC22271 | 0.245 | 8.47e5 | 9.15e5 |
| spin | DRSC39628 | -0.685 | 4.50e5 | 3.86e5 |
| Indy-2 + CG33934 | DRSC15685 | -0.852 | 6.58e5 | 7.03e5 |
| Indy-2 + CG33934 | DRSC15686 | -0.612 | 2.69e5 | 2.77e5 |
| NtR | DRSC04628 | -0.698 | 6.59e5 | 6.45e5 |
| NtR | DRSC27686 | -0.497 | 8.69e5 | 8.83e5 |

Called active, of those listed so far:
| gene knocked down | DRSC id | ATP z-score, duplicate mean | ATP luminescence, replicate 1 (RLU) | ATP luminescence, replicate 2 (RLU) |
| --- | --- | --- | --- | --- |
| tty | DRSC26868 | 2.58 (active) | 1.01e6 | 1.14e6 |
| CG3078 | DRSC39707 | 2.57 (active) | 5.90e5 | 6.92e5 |
| PIG-N | DRSC06837 | 2.45 (active) | 7.84e5 | 8.99e5 |
| CG12914 | DRSC06229 | -1.68 (active) | 4.17e5 | 5.18e5 |
| htl | DRSC36668 | -1.82 (active) | 4.14e5 | 4.37e5 |
| Fas3 | DRSC03326 | 2.82 (active) | 1.07e6 | 9.79e5 |
| Fas3 | DRSC22776 | 3.13 (active) | 8.89e5 | 7.99e5 |
| LpR1 | DRSC15665 | -2.01 (active) | 5.25e5 | 4.72e5 |
| LpR1 | DRSC27848 | 1.67 (active) | 8.07e5 | 8.92e5 |
| TyrR | DRSC39601 | 1.74 (active) | 6.39e5 | 5.26e5 |
| ppk19 | DRSC15321 | -1.52 (active) | 5.21e5 | 9.92e5 |
| Ctr1A | DRSC18336 | -2.44 (active) | 3.86e5 | 4.89e5 |
| List | DRSC39801 | -1.61 (active) | 3.99e5 | 3.31e5 |
